Experimental data published in US20240408093A1, “HETEROBIFUNCTIONAL COMPOUNDS AND THEIR USE IN TREATING DISEASE” (HALDA THERAPEUTICS OPCO, INC., priority 2022, published 2024).
The match of structure and compound is tentative.

Sequences of proteins named here, by UniProt entry; tags and fusion partners are left off.
UniProt P15170, whole entry: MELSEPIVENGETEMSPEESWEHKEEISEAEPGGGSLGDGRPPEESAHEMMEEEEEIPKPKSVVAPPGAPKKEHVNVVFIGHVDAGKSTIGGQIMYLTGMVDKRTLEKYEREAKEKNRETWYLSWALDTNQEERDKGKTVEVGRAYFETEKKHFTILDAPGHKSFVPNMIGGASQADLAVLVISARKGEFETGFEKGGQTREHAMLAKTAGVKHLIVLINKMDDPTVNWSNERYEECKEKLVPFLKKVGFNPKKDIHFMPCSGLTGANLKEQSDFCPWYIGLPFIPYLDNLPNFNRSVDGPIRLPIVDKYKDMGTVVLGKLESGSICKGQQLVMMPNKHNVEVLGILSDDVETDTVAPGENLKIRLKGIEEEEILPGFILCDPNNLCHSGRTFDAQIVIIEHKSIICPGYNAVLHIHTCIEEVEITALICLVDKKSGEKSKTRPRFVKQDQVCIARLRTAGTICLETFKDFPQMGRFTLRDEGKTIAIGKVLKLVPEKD
UniProt Q96SW2, whole entry: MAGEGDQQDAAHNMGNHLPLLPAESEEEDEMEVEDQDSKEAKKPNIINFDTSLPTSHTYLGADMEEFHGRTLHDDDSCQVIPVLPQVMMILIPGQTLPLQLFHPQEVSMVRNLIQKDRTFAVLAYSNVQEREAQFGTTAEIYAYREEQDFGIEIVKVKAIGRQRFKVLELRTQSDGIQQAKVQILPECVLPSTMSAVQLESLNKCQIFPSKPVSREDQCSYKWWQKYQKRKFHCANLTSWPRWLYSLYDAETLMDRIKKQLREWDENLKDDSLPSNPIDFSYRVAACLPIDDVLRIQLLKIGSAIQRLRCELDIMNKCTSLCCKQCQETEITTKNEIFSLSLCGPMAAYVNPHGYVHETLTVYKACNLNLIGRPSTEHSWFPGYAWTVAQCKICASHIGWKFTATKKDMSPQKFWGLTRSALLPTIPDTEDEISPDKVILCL
UniProt Q06187, whole entry: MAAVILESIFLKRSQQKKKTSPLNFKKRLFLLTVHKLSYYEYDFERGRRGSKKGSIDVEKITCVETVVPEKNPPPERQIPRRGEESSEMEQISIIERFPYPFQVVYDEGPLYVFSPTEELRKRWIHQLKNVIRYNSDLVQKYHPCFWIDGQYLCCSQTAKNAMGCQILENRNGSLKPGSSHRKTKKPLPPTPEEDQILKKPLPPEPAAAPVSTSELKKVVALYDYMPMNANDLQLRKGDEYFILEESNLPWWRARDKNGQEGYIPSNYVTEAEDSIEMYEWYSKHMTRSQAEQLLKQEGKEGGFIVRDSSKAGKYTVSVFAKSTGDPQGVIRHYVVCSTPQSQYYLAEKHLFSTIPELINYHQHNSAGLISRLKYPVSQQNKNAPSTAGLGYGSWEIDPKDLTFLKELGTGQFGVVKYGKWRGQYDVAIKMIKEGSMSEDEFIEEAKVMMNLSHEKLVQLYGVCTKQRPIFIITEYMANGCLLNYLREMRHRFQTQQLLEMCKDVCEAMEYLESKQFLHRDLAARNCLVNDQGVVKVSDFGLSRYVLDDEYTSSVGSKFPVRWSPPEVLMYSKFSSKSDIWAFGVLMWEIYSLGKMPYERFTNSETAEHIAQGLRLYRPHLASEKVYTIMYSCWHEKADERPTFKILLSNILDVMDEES
UniProt Q16531, whole entry partner: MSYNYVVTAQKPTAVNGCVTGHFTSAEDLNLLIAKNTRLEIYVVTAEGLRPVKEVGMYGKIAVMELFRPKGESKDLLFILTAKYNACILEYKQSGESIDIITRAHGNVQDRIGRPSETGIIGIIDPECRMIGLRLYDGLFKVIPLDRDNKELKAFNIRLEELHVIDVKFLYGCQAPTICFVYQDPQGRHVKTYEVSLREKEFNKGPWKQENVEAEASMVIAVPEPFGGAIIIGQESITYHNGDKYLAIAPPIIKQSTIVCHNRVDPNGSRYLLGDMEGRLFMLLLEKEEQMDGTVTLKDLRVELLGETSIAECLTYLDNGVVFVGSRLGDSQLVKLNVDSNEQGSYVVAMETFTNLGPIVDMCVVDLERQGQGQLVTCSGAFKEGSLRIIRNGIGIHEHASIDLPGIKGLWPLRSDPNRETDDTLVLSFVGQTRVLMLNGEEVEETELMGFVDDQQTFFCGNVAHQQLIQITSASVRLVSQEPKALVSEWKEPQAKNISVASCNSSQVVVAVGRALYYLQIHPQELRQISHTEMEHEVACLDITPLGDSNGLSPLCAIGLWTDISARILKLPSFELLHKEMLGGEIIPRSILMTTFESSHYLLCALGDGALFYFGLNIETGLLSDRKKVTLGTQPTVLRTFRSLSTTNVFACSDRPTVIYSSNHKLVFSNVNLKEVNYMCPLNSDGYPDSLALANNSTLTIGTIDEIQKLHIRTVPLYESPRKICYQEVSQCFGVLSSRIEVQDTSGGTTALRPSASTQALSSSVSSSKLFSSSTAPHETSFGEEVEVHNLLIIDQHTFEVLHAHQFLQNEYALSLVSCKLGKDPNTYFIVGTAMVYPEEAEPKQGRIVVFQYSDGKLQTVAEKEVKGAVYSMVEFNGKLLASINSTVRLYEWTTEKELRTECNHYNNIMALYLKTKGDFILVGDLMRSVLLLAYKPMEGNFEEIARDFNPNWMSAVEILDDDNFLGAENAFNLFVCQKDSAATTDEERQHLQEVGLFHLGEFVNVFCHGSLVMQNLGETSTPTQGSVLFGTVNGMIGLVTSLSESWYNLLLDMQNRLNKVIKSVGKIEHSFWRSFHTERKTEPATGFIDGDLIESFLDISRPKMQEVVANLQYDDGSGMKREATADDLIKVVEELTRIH

Experiments:
HeLa cells (ATCC CCL-2) = assay: Cellular growth inhibition assay, HeLa cells (Example 16); details: read-out: HeLa (GI50), 72 hours, CellTiter-Glo 2.0
Protocol: Exemplary compounds were tested for ability to inhibit the proliferation of HEK293 cells (ATCC CRL-1573) and HeLa cells (ATCC CCL-2).
HEK293 and HeLa cells were cultured in DMEM (Gibco 11995), supplemented with 10% Heat-inactivated FBS (Gibco A38400-01) and 1% Penicillin/Streptomycin (Gibco 15140-122) at 37° C. with 5% CO2 in a humidified tissue culture incubator. Cells were seeded at 500 cells/well in 384-well, Poly-D-lysine-treated blackplates (Perkin Elmer 6007710) in 25 μL media lacking selection for 18-24 hours. Plates were spun at 300 g for 30 seconds and stored in the incubator overnight. After 24 hours, a 25 μL aliquot of compound-containing medium was added in each well, at a final top concentration of 10 μM test compound, with 3-fold dilutions, using DMSO alone as a negative control. Plates were then spun at 300×g for 3 minutes again and cultured at 37° C. with 5% CO2. After 72 hours, cell viability was quantified with CellTiter-Glo 2.0 (Promega). After equilibrating cell plates at room temperature for 30 minutes, 25 μL CellTiter-Glo 2.0 reagent was dispensed into each well. Plates were mixed on a shaker for 2 minutes at 500 rpm, followed by a 10-minute incubation at room temperature. Luminescence readings were measured with an EnVision Plate Reader (Perkin Elmer). Data was normalized to DMSO treated cell wells. A four-parameter non-linear regression curve fit was applied to dose-response data in Prism to determine the half maximal growth inhibitory concentration (GI50) of each compound.

GSPT1 = GSPT1 (Homo sapiens, UniProt P15170+Q96SW2); assay: GSPT1 HiBiT degradation assay; details: HEK293 LgBiT GSPT1 HiBiT cells, 6 hours
Source text: Promega developed a HEK293 cell line that constitutively expresses LgBiT protein and GSPT1_HiBiT fusion protein. When both proteins are present, the HiBiT portion of the fusion protein combines with LgBiT protein to form a functional luciferase enzyme. Endurazine, a cell permeable small molecule, is converted by cellular esterases into furimazine, which the luciferase enzyme uses as a substrate to generate luminescence. When GSPT1 is degraded, the HiBit is also degraded. This prevents formation of fully functional luciferase, leading to a loss in luminescence. GSPT1 degradation therefore correlates with a decrease in luminescence and can be measured continuously over time. The concentration of compound at which 50% GSPT1 degradation occurs (DC50) may be calculated using this system.
HEK293 LgBiTGSPT1 HiBiT CRISPR Knock-in cells were cultured in DMEM Media supplemented with 10% Heat-inactivated FBS, 1% Penicillin/Streptomycin, 200 μg/mL hygromycin and stored in a humidified incubator set at 37° C. and 5% CO2. […] After 6 hours, the plate was read on a Perkin Elmer MultiMode Plate Reader Envision 2105 to measure luminescence signal. Data were plotted in Prism (Graphpad) and the concentration of compound at which 50% GSPT1 degradation occurs (DC50) was calculated.

[1] = molecular target: full-length BTK (amino acids 1-659) (Homo sapiens, UniProt Q06187); assay: KdELECT binding assay, BTK
Protocol: Exemplary compounds were tested for ability to bind to full-length BTK (amino acids 1-659; Accession Number NP_000052.1) expressed from mammalian cells. Compounds were tested using the KdELECT assay.
Kinase-tagged T7 phage strains were prepared in an E. coli host derived from the BL21 strain. E. coli were grown to log-phase and infected with T7 phage and incubated with shaking at 32° C. until lysis. The lysates were centrifuged and filtered to remove cell debris. The remaining kinases were produced in HEK-293 cells and subsequently tagged with DNA for qPCR detection. Streptavidin-coated magnetic beads were treated with biotinylated small molecule ligands for 30 minutes at room temperature to generate affinity resins for kinase assays. The liganded beads were blocked with excess biotin and washed with blocking buffer (SeaBlock (Pierce), 1% BSA, 0.05% Tween 20, 1 mM DTT) to remove unbound ligand and to reduce non-specific binding. Binding reactions were assembled by combining kinases, liganded affinity beads, and test compounds in 1× binding buffer (20% SeaBlock, 0.17× PBS, 0.05% Tween 20, 6 mM DTT). Test compounds were prepared as 111× stocks in 100% DMSO. Kd values were determined using an 11-point 3-fold compound dilution series with three DMSO control points. […] The kinase concentration in the eluates was measured by qPCR.

In the case of `C=C(CN(C(=O)NCc1ccc2c(c1)CN(C1CCC(=O)NC1=O)C2=O)c1ccc(C)c(Cl)c1)C(=O)N1CCC[C@@H](n2nc(-c3ccc(Oc4ccccc4)cc3)c3c(N)ncnc32)C1` (stereo partly drawn) [Compound I-4], the GI50 (HeLa cells (ATCC CCL-2)) is reported as over 10000 nM, the DC50 (GSPT1) is reported as 500 to 2500 nM and the Kd [1] is reported as 50 to 500 nM.
